Reference: paper PMC5548489
Results are given in words; binding and its absence hold for the method and conditions named. In cells and extracts the contact can be indirect. These calls come from enrichment with a bait or labelling near it, and not all partners need be listed. Values belong to the binder of their own block, whether it stands above or below them.

Amino acid sequences for entries named in this document (tags omitted).
UniProt P03372: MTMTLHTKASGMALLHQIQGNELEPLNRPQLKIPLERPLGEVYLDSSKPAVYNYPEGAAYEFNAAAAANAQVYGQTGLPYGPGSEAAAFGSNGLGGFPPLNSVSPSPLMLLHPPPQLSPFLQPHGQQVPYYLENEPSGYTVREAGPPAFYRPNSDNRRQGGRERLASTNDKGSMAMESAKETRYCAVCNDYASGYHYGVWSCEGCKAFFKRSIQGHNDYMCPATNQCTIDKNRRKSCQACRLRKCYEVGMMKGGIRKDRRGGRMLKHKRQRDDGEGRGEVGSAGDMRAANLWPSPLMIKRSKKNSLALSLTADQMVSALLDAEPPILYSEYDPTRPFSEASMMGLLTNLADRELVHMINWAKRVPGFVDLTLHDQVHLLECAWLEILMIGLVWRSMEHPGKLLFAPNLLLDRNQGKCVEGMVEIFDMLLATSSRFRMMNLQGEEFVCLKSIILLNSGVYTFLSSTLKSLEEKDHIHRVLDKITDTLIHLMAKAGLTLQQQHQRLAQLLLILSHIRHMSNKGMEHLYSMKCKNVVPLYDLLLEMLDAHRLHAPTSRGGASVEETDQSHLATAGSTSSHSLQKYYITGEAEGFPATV

Biological target: estrogen receptor alpha (ER) (human (endogenous in MCF-7 and ZR-75)) (UniProt P03372)
Assay: affinity purification with mass spectrometry; anti-ER antibody (Santa Cruz sc-8002) on Dynabeads Protein G, 1.5 mg lysate of MCF-7 or ZR-75 cells overnight at 4°C; cells starved, vehicle or 10 µM ERX-11 for 2 hr, then 10 nM E2 for 2 hr; the named proteins are ER binders whose co-precipitation was disrupted by ERX-11

binding: binds
B1: COG8 (protein, UniProt Q96MW5 1-612)
chain: MATAATIPSVATATAAALGEVEDEGLLASLFRDRFPEAQWRERPDVGRYLRELSGSGLERLRREPERLAEERAQLLQQTRDLAFANYKTFIRGAECTERIHRLFGDVEASLGRLLDRLPSFQQSCRNFVKEAEEISSNRRMNSLTLNRHTEILEILEIPQLMDTCVRNSYYEEALELAAYVRRLERKYSSIPVIQGIVNEVRQSMQLMLSQLIQQLRTNIQLPACLRVIGYLRRMDVFTEAELRVKFLQARDAWLRSILTAIPNDDPYFHITKTIEASRVHLFDIITQYRAIFSDEDPLLPPAMGEHTVNESAIFHGWVLQKVSQFLQVLETDLYRGIGGHLDSLLGQCMYFGLSFSRVGADFRGQLAPVFQRVAISTFQKAIQETVEKFQEEMNSYMLISAPAILGTSNMPAAVPATQPGTLQPPMVLLDFPPLACFLNNILVAFNDLRLCCPVALAQDVTGALEDALAKVTKIILAFHRAEEAAFSSGEQELFVQFCTVFLEDLVPYLNRCLQVLFPPAQIAQTLGIPPTQLSKYGNLGHVNIGAIQEPLAFILPKRETLFTLDDQALGPELTAPAPEPPAEEPRLEPAGPACPEGGRAETQAEPPSVGP

binding: binds
B2: NUP93 (protein, UniProt Q8N1F7 1-819)
chain: MDTEGFGELLQQAEQLAAETEGISELPHVERNLQEIQQAGERLRSRTLTRTSQETADVKASVLLGSRGLDISHISQRLESLSAATTFEPLEPVKDTDIQGFLKNEKDNALLSAIEESRKRTFGMAEEYHRESMLVEWEQVKQRILHTLLASGEDALDFTQESEPSYISDVGPPGRSSLDNIEMAYARQIYIYNEKIVNGHLQPNLVDLCASVAELDDKSISDMWTMVKQMTDVLLTPATDALKNRSSVEVRMEFVRQALAYLEQSYKNYTLVTVFGNLHQAQLGGVPGTYQLVRSFLNIKLPAPLPGLQDGEVEGHPVWALIYYCMRCGDLLAASQVVNRAQHQLGEFKTWFQEYMNSKDRRLSPATENKLRLHYRRALRNNTDPYKRAVYCIIGRCDVTDNQSEVADKTEDYLWLKLNQVCFDDDGTSSPQDRLTLSQFQKQLLEDYGESHFTVNQQPFLYFQVLFLTAQFEAAVAFLFRMERLRCHAVHVALVLFELKLLLKSSGQSAQLLSHEPGDPPCLRRLNFVRLLMLYTRKFESTDPREALQYFYFLRDEKDSQGENMFLRCVSELVIESREFDMILGKLENDGSRKPGVIDKFTSDTKPIINKVASVAENKGLFEEAAKLYDLAKNADKVLELMNKLLSPVVPQISAPQSNKERLKNMALSIAERYRAQGISANKFVDSTFYLLLDLITFFDEYHSGHIDRAFDIIERLKLVPLNQESVEERVAAFRNFSDEIRHNLSEVLLATMNILFTQFKRLKGTSPSSSSRPQRVIEDRDSQLRSQARTLITFAGMIPYRTSGDTNARLVQMEVLMN

binding: binds
B3: COPB2 (protein, UniProt P35606 1-906)
chain: MPLRLDIKRKLTARSDRVKSVDLHPTEPWMLASLYNGSVCVWNHETQTLVKTFEVCDLPVRAAKFVARKNWVVTGADDMQIRVFNYNTLERVHMFEAHSDYIRCIAVHPTQPFILTSSDDMLIKLWDWDKKWSCSQVFEGHTHYVMQIVINPKDNNQFASASLDRTIKVWQLGSSSPNFTLEGHEKGVNCIDYYSGGDKPYLISGADDRLVKIWDYQNKTCVQTLEGHAQNVSCASFHPELPIIITGSEDGTVRIWHSSTYRLESTLNYGMERVWCVASLRGSNNVALGYDEGSIIVKLGREEPAMSMDANGKIIWAKHSEVQQANLKAMGDAEIKDGERLPLAVKDMGSCEIYPQTIQHNPNGRFVVVCGDGEYIIYTAMALRNKSFGSAQEFAWAHDSSEYAIRESNSIVKIFKNFKEKKSFKPDFGAESIYGGFLLGVRSVNGLAFYDWDNTELIRRIEIQPKHIFWSDSGELVCIATEESFFILKYLSEKVLAAQETHEGVTEDGIEDAFEVLGEIQEIVKTGLWVGDCFIYTSSVNRLNYYVGGEIVTIAHLDRTMYLLGYIPKDNRLYLGDKELNIISYSLLVSVLEYQTAVMRRDFSMADKVLPTIPKEQRTRVAHFLEKQGFKQQALTVSTDPEHRFELALQLGELKIAYQLAVEAESEQKWKQLAELAISKCQFGLAQECLHHAQDYGGLLLLATASGNANMVNKLAEGAERDGKNNVAFMSYFLQGKVDACLELLIRTGRLPEAAFLARTYLPSQVSRVVKLWRENLSKVNQKAAESLADPTEYENLFPGLKEAFVVEEWVKETHADLWPAKQYPLVTPNEERNVMEEGKDFQPSRSTAQQELDGKPASPTPVIVASHTANKEEKSLLELEVDLDNLELEDIDTTDINLDEDILDD

binding: binds
B4: COPG2 (protein, UniProt Q9UBF2 1-871)
chain: MIKKFDKKDEESGSGSNPFQHLEKSAVLQEARIFNETPINPRRCLHILTKILYLLNQGEHFGTTEATEAFFAMTRLFQSNDQTLRRMCYLTIKEMATISEDVIIVTSSLTKDMTGKEDVYRGPAIRALCRITDGTMLQAIERYMKQAIVDKVSSVSSSALVSSLHMMKISYDVVKRWINEAQEAASSDNIMVQYHALGVLYHLRKNDRLAVSKMLNKFTKSGLKSQFAYCMLIRIASRLLKETEDGHESPLFDFIESCLRNKHEMVIYEAASAIIHLPNCTARELAPAVSVLQLFCSSPKPALRYAAVRTLNKVAMKHPSAVTACNLDLENLITDSNRSIATLAITTLLKTGSESSVDRLMKQISSFVSEISDEFKVVVVQAISALCQKYPRKHSVMMTFLSNMLRDDGGFEYKRAIVDCIISIVEENPESKEAGLAHLCEFIEDCEHTVLATKILHLLGKEGPRTPVPSKYIRFIFNRVVLENEAVRAAAVSALAKFGAQNESLLPSILVLLQRCMMDTDDEVRDRATFYLNVLQQRQMALNATYIFNGLTVSVPGMEKALHQYTLEPSEKPFDMKSIPLAMAPVFEQKAEITLVATKPEKLAPSRQDIFQEQLAAIPEFLNIGPLFKSSEPVQLTEAETEYFVRCIKHMFTNHIVFQFDCTNTLNDQLLEKVTVQMEPSDSYEVLSCIPAPSLPYNQPGICYTLVRLPDDDPTAVAGSFSCTMKFTVRDCDPNTGVPDEDGYDDEYVLEDLEVTVSDHIQKVLKPNFAAAWEEVGDTFEKEETFALSSTKTLEEAVNNIITFLGMQPCERSDKVPENKNSHSLYLAGIFRGGYDLLVRSRLALADGVTMQVTVRSKERTPVDVILASVG

binding: binds
B5: NUP155 (protein, UniProt O75694 1-1391)
chain: MPSSLLGAAMPASTSAAALQEALENAGRLIDRQLQEDRMYPDLSELLMVSAPNNPTVSGMSDMDYPLQGPGLLSVPNLPEISSIRRVPLPPELVEQFGHMQCNCMMGVFPPISRAWLTIDSDIFMWNYEDGGDLAYFDGLSETILAVGLVKPKAGIFQPHVRHLLVLATPVDIVILGLSYANLQTGSGVLNDSLSGGMQLLPDPLYSLPTDNTYLLTITSTDNGRIFLAGKDGCLYEVAYQAEAGWFSQRCRKINHSKSSLSFLVPSLLQFTFSEDDPILQIAIDNSRNILYTRSEKGVIQVYDLGQDGQGMSRVASVSQNAIVSAAGNIARTIDRSVFKPIVQIAVIENSESLDCQLLAVTHAGVRLYFSTCPFRQPLARPNTLTLVHVRLPPGFSASSTVEKPSKVHRALYSKGILLMAASENEDNDILWCVNHDTFPFQKPMMETQMTAGVDGHSWALSAIDELKVDKIITPLNKDHIPITDSPVVVQQHMLPPKKFVLLSAQGSLMFHKLRPVDQLRHLLVSNVGGDGEEIERFFKLHQEDQACATCLILACSTAACDREVSAWATRAFFRYGGEAQMRFPTTLPPPSNVGPILGSPVYSSSPVPSGSPYPNPSFLGTPSHGIQPPAMSTPVCALGNPATQATNMSCVTGPEIVYSGKHNGICIYFSRIMGNIWDASLVVERIFKSGNREITAIESSVPCQLLESVLQELKGLQEFLDRNSQFAGGPLGNPNTTAKVQQRLIGFMRPENGNPQQMQQELQRKFHEAQLSEKISLQAIQQLVRKSYQALALWKLLCEHQFTIIVAELQKELQEQLKITTFKDLVIRDKELTGALIASLINCYIRDNAAVDGISLHLQDICPLLYSTDDAICSKANELLQRSRQVQNKTEKERMLRESLKEYQKISNQVDLSNVCAQYRQVRFYEGVVELSLTAAEKKDPQGLGLHFYKHGEPEEDIVGLQAFQERLNSYKCITDTLQELVNQSKAAPQSPSVPKKPGPPVLSSDPNMLSNEEAGHHFEQMLKLSQRSKDELFSIALYNWLIQVDLADKLLQVASPFLEPHLVRMAKVDQNRVRYMDLLWRYYEKNRSFSNAARVLSRLADMHSTEISLQQRLEYIARAILSAKSSTAISSIAADGEFLHELEEKMEVARIQLQIQETLQRQYSHHSSVQDAVSQLDSELMDITKLYGEFADPFKLAECKLAIIHCAGYSDPILVQTLWQDIIEKELSDSVTLSSSDRMHALSLKIVLLGKIYAGTPRFFPLDFIVQFLEQQVCTLNWDVGFVIQTMNEIGVPLPRLLEVYDQLFKSRDPFWNRMKKPLHLLDCIHVLLIRYVENPSQVLNCERRRFTNLCLDAVCGYLVELQSMSSSVAVQAITGNFKSLQAKLERLH

binding: binds
B6: COG5 (protein, UniProt Q9UP83 1-860)
chain: MGWVGGRRRDSASPPGRSRSAADDINPAPANMEGGGGSVAVAGLGARGSGAAAATVRELLQDGCYSDFLNEDFDVKTYTSQSIHQAVIAEQLAKLAQGISQLDRELHLQVVARHEDLLAQATGIESLEGVLQMMQTRIGALQGAVDRIKAKIVEPYNKIVARTAQLARLQVACDLLRRIIRILNLSKRLQGQLQGGSREITKAAQSLNELDYLSQGIDLSGIEVIENDLLFIARARLEVENQAKRLLEQGLETQNPTQVGTALQVFYNLGTLKDTITSVVDGYCATLEENINSALDIKVLTQPSQSAVRGGPGRSTMPTPGNTAALRASFWTNMEKLMDHIYAVCGQVQHLQKVLAKKRDPVSHICFIEEIVKDGQPEIFYTFWNSVTQALSSQFHMATNSSMFLKQAFEGEYPKLLRLYNDLWKRLQQYSQHIQGNFNASGTTDLYVDLQHMEDDAQDIFIPKKPDYDPEKALKDSLQPYEAAYLSKSLSRLFDPINLVFPPGGRNPPSSDELDGIIKTIASELNVAAVDTNLTLAVSKNVAKTIQLYSVKSEQLLSTQGDASQVIGPLTEGQRRNVAVVNSLYKLHQSVTKVVSSQSSFPLAAEQTIISALKAIHALMENAVQPLLTSVGDAIEAIIITMHQEDFSGSLSSSGKPDVPCSLYMKELQGFIARVMSDYFKHFECLDFVFDNTEAIAQRAVELFIRHASLIRPLGEGGKMRLAADFAQMELAVGPFCRRVSDLGKSYRMLRSFRPLLFQASEHVASSPALGDVIPFSIIIQFLFTRAPAELKSPFQRAEWSHTRFSQWLDDHPSEKDRLLLIRGALEAYVQSVRSREGKEFAPVYPIMVQLLQKAMSALQ
